Binding data for 1 substance are collected here from PMC4014440.

Protein sequences, listed by entry. Tags and fused reporters are not part of them.
UniProt Q17551: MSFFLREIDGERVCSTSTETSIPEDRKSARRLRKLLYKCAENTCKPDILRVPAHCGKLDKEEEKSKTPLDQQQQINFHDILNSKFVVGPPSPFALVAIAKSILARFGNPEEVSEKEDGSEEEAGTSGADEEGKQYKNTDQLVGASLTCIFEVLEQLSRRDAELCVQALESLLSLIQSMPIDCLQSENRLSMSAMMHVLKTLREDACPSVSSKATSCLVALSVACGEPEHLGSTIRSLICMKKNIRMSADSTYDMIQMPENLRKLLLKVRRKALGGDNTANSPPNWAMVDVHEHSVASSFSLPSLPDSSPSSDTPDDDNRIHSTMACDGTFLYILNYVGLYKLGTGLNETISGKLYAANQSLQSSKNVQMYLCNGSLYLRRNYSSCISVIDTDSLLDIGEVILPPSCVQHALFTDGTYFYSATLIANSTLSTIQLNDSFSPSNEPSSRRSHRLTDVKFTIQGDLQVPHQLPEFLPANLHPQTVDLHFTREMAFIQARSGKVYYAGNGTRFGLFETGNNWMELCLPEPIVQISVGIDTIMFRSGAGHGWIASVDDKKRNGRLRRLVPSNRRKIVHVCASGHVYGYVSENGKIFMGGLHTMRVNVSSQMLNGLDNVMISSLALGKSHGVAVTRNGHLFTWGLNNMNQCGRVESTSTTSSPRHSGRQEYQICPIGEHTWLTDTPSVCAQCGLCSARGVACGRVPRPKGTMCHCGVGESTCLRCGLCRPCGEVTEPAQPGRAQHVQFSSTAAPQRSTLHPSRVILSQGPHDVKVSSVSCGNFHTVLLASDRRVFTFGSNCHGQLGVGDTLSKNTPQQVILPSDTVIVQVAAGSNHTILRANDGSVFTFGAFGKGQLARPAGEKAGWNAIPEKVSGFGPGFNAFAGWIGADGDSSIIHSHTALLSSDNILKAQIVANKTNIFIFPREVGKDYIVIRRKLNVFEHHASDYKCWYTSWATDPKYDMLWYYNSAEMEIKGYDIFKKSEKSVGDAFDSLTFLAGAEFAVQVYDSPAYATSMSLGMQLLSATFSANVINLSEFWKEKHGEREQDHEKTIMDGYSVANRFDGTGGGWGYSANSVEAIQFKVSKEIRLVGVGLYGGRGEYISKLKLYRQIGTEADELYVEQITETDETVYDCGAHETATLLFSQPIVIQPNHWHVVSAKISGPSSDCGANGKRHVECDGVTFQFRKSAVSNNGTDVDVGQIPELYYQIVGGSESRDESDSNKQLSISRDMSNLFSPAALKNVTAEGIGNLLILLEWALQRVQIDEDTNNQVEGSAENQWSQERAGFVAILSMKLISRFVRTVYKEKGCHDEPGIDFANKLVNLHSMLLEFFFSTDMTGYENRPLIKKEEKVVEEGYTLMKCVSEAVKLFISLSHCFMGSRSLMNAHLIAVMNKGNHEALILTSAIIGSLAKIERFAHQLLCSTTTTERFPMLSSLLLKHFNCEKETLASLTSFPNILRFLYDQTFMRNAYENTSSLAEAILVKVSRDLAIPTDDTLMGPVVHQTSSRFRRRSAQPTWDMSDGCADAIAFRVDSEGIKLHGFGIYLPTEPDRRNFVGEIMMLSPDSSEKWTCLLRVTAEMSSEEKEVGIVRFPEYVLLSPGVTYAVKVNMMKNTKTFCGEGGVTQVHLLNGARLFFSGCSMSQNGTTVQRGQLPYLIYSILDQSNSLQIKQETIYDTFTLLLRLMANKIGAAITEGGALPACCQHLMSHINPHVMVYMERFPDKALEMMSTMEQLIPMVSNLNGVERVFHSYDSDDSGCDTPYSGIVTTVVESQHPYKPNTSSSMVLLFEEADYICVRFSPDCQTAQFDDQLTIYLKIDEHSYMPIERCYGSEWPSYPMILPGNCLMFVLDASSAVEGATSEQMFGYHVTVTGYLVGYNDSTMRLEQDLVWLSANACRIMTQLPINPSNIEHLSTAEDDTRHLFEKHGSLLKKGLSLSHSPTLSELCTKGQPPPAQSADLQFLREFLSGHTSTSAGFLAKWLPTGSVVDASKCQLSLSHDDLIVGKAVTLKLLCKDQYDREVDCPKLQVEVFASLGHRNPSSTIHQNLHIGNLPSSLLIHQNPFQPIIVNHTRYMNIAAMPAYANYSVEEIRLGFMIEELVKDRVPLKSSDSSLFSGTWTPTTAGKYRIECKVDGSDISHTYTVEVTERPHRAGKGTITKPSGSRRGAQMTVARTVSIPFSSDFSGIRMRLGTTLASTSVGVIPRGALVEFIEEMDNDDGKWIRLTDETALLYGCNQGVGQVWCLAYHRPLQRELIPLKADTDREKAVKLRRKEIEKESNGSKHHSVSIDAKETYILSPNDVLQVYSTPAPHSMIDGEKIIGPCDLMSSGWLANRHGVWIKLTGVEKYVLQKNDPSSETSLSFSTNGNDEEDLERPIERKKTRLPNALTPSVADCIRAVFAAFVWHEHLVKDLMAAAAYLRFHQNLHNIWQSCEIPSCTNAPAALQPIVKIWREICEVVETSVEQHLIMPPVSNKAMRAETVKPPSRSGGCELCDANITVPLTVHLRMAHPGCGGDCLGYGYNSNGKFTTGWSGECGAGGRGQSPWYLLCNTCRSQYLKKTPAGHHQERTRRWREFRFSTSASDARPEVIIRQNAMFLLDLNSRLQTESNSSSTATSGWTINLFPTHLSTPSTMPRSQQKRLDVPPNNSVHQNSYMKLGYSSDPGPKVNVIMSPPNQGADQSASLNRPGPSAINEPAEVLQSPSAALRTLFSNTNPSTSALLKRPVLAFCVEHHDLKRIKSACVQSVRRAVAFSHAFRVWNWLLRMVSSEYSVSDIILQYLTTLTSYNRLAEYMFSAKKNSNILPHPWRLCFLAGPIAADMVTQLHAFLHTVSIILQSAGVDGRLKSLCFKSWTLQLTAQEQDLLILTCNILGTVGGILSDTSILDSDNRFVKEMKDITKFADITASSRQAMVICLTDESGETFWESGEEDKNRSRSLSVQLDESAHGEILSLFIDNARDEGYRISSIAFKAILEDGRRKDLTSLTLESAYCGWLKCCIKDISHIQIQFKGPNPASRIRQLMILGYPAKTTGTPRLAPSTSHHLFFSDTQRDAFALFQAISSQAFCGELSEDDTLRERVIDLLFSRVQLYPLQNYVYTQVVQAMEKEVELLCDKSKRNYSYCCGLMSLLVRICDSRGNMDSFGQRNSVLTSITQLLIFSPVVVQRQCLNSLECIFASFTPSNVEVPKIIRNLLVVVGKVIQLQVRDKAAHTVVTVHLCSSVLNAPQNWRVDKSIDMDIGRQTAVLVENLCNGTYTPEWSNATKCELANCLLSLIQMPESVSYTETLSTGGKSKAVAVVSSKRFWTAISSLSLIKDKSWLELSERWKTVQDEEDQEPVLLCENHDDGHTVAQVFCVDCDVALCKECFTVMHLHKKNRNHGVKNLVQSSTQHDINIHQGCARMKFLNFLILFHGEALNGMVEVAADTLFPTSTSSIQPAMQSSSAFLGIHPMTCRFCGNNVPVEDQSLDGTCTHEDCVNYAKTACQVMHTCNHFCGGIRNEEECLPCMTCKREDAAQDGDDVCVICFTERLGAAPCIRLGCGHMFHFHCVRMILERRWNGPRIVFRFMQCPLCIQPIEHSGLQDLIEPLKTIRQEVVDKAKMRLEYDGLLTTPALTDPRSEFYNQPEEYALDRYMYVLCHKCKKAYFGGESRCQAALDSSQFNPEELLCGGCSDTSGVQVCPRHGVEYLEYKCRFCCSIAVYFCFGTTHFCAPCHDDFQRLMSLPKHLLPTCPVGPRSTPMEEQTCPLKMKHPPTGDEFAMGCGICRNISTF

No constants are given. Whether binding was seen depends on the method and setting. In cells and extracts the contact can be indirect. Some entries that bind do so weakly or less than the wild type. Tags and fused reporters may be left off the sequences shown.

In this test the target is T1, FLAG epitope tagged PPM-2 (FLAG::PPM-2) (C. elegans) (UniProt P49596).
T1 sequence: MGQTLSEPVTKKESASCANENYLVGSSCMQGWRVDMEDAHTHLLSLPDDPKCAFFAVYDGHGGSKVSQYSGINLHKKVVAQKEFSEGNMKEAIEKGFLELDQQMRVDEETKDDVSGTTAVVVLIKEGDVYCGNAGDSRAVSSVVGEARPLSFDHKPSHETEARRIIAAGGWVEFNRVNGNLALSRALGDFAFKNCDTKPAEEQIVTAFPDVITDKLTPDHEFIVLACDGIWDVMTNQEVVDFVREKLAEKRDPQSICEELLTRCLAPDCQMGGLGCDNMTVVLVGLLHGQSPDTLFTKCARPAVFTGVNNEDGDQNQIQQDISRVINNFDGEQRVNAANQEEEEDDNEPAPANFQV
As to the kind of experiment: co-IP; FLAG::PPM-2 immunoprecipitated with anti-FLAG antibody (M2) and protein G agarose from 3 mg of transgenic whole worm lysate (50 mM Tris pH 7.5, 0.1% NP-40, 150 mM NaCl, 10% glycerol); RPM-1::GFP detected by anti-GFP immunoblot. On the technique in general: A western blot detects proteins with antibodies after separation by electrophoresis.

Regarding “RPM-1::GFP (fusion protein of Regulator of Presynaptic Morphology 1 and GFP) (from UniProt Q17551 1-3766)”, the binding entry is “binds”.
